Measured values from PubChem BioAssay AID504444 (National Center for Advancing Translational Sciences (NCATS), 2011).
About 7,500 (2.1%) of roughly 360,000 compounds were called active. This list was built around the results that the source calls inconclusive (neither active nor inactive); the mix of calls is not that of the screen. The call rests on the fitted dose curve; in most records, active means well fitted inhibition curve with a large enough effect; inconclusive means small, poorly fitted or top-dose-only effect, or effect the other way; inactive means flat fitted curve, though single readings scatter. Potencies beside an inconclusive call are fits to weak or partial responses and may not hold up.
On the % scale 0 is the no-effect control and ±100 the full control effect; potency means the concentration at half of the fitted maximal effect.

Experiment: Nrf2 qHTS screen for inhibitors; further: nearly all actives have a fitted effect of over 60% in size
Details: A549 ARE-Fluc reporter, luciferase luminescence, 18-24 h; activity change, negative = inhibition: at 46 µM (top of the series)
Outline: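 In this cell-based qHTS, ARE-driven firefly luciferase in A549 cells reports Nrf2 activity; the luminescent signal after BugLite lysis is the measured value, with a prior CellTiter-Fluor read for cell health.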
With `COC(=O)CSC1=C(C#N)C(c2ccc(C)o2)CC(=O)N1` (stereo unspecified) the Potency was inconclusive: 13 µM [activator, partial curve]. With `CCOC(=O)c1ccc2c(c1)n(CC)c(/C=C/N(C)c1ccccc1)[n+]2CC` the Potency was active: 3.26 µM. For `Cc1cc[n+](CC2OCc3ccccc3CO2)cc1`, the Potency was inconclusive: 2.31 µM [falling, full curve]. With `Clc1ccc2nc(-c3ccc4c(c3)OCO4)cn2c1` the Potency was inconclusive: 1.3 µM [activator, full curve]. With `CC(=O)Nc1cccc(NC(=O)C2CC3CCC2C3)c1` (stereo unspecified) the Potency was inconclusive: 0.058 µM [falling, full curve, poor fit]. With `CCCCn1nc(C(=O)Nc2ccc(-n3cnnn3)cc2)c2ccccc2c1=O` the “activity change, negative = inhibition” value was inactive: -2.14%. For `O=C(Nc1ccc(S(=O)(=O)NCCc2ccccc2)cc1)c1ccco1`, the “activity change, negative = inhibition” value was inactive: -17.1%. For `COc1ccccc1C(=O)NCC(=O)Nc1ccc2c(c1)CCC2`, the Potency was inconclusive: 29.1 µM [activator, single point]. For `CCOc1ccccc1C(=O)N(Cc1ccc(N(C)C)cc1)Cc1ccco1`, the Potency was inconclusive: 32.6 µM [falling, single point]. With `CCCCc1ccc(NC(=S)N2CCCC(CO)C2)cc1` (stereo unspecified) the Potency was inconclusive: 18.4 µM [activator, partial curve]. With `C/C(=N\NC(=O)c1ccccc1O)c1ccc(NC(=O)Cc2ccccc2)cc1` the Potency was inconclusive: 4.11 µM [activator, full curve]. For `C=CCNc1ncnc2ccc(Br)cc12`, the Potency was inconclusive: 20.6 µM [falling, single point]. For `O=C(c1cccc(Cl)c1)N1CCC(c2nc3c(nnn3Cc3ccc(F)cc3F)c(=O)[nH]2)CC1`, the “activity change, negative = inhibition” value was inactive: -21.4%. With `Cc1cc(C)c(C(=O)COC(=O)c2c(C)noc2C)cc1C` the Potency was inconclusive: 25.9 µM [falling, single point]. In the case of `COc1ccc(/C=C/c2nc3ccccc3n2Cc2ccccc2OC)cc1`, the Potency is reported as inconclusive: 29.1 µM [falling, single point]. With `Nc1nc(N)nc(COc2ccccc2)n1` the Potency was inconclusive: 4.61 µM [activator, full curve]. With `COc1ccc2c(c1)c(C(=O)N/N=C/c1ccccc1Cl)c(C)n2C` the Potency was inconclusive: 2.06 µM [activator, partial curve, poor fit]. For `COc1ccc(C(=O)c2cn(Cc3ccccc3F)c3ccc(F)cc3c2=O)cc1`, the Potency was inconclusive: 25.9 µM [falling, partial curve]. In the case of `O=C(/C=C/c1cccs1)NNC(=O)c1ccccc1`, the Potency is reported as inconclusive: 29.1 µM [activator, partial curve, poor fit]. With `COc1ccc(OC)c(C2C=C(C34CC5CC(CC(C5)C3)C4)NC(=S)N2)c1` (stereo unspecified) the Potency was inconclusive: 25.9 µM [falling, single point]. With `COc1ccc(-c2[nH]c(-c3ccc(OC)c(OC)c3)nc2SCC(=O)Nc2ccccc2)cc1` the Potency was active: 23.1 µM. For `CCCC(=O)Nc1ccc2c(c1)nc1n2CCSC1`, the Potency was inconclusive: 7.31 µM [activator, partial curve, poor fit]. With `Cc1c(Cl)cccc1Nc1nc(N)nc(CN2CCc3ccccc3C2)n1` the Potency was inconclusive: 18.4 µM [activator, single point]. For `CCOC(=O)C1(Cc2cccc(OC)c2)CCCN(C(=O)CCc2cccnc2)C1` (stereo unspecified), the Potency was inconclusive: 29.1 µM [activator, single point]. For `CC1Cc2ccccc2N1C(=S)Nc1ccc(S(N)(=O)=O)cc1` (stereo unspecified), the Potency was inconclusive: 29.1 µM [falling, single point]. In the case of `S=C(Nc1ccccc1Cl)NC1CCCCCC1`, the Potency is reported as inconclusive: 20.6 µM [falling, single point]. For `CCOC(=O)c1c(SC)n(-c2ccccc2)c(=S)n(-c2ccccc2)c1=O`, the “activity change, negative = inhibition” value was inactive: -1.48%. For `COc1cc(OC)c(NC(=O)N2CCOc3ccc(C)cc32)cc1Cl`, the “activity change, negative = inhibition” value was inactive: 3.4%. With `COC(=O)[C@@]1(C)[C@H]2C(=O)N(C)C(=O)[C@H]2[C@H]2CN=C(SC)N21` the Potency was inconclusive: 0.731 µM [activator, full curve, poor fit]. For `Cc1nn(-c2ccccc2)c2nc(N)c(C#N)c(-c3ccc(O)c(O)c3)c12`, the “activity change, negative = inhibition” value was inactive: 16.2%. In the case of `CCOc1ccc(C(=O)Nc2ccc(Cc3ccncc3)cc2)cc1Br`, the Potency is reported as active: 14.6 µM. With `N#Cc1cc2c(=O)n3ccccc3nc2n(-c2nnc(SCc3ccc(F)cc3)s2)c1=O` the Potency was inconclusive: 20.6 µM [falling, partial curve, poor fit]. In the case of `O=C(NCCCN1CCN(c2ccc(F)cc2)CC1)c1cc2c(s1)-c1ccccc1OC2`, the Potency is reported as inconclusive: 2.91 µM [activator, partial curve, poor fit]. For `CCCn1nc(C(=O)NNC(=O)CSC(C)C(=O)Nc2cc(C)on2)c2ccccc2c1=O` (stereo unspecified), the “activity change, negative = inhibition” value was inactive: -10.4%. For `COc1ccccc1NC(=O)c1sc2nc(Cc3ccccc3)cc(C(F)(F)F)c2c1N`, the Potency was inconclusive: 7.31 µM [falling, partial curve, poor fit]. With `CC(C)N(Cc1ccccc1)S(=O)(=O)c1ccc(Cl)nc1` the Potency was inconclusive: 16.4 µM [falling, partial curve, poor fit]. With `CCc1cccc(CC)c1-n1c(SCC(=O)N2CCc3ccccc32)nc(O)cc1=O` the Potency was inconclusive: 32.6 µM [falling, partial curve, poor fit]. For `CC(C)Cn1c(N)c(C(=O)COC(=O)c2cccn2C)c(=O)n(C)c1=O`, the Potency was active: 23.1 µM. In the case of `Cc1ccc(/C=N/NC(=O)CSc2ccccn2)o1`, the Potency is reported as inconclusive: 18.4 µM [falling, single point]. In the case of `CCCCC(=O)Nc1cccc(-c2csc(-c3ccccc3)n2)c1`, the Potency is reported as inconclusive: 9.2 µM [activator, partial curve, poor fit]. With `CNC(=S)NNC(=O)c1cccn(Cc2ccc(Cl)c(Cl)c2)c1=O` the Potency was inconclusive: 18.4 µM [falling, partial curve, poor fit]. With `O=C(NCC1(c2ccccc2)CCCC1)C1(c2ccccc2)CCCC1` the Potency was inconclusive: 29.1 µM [falling, single point]. In the case of `COc1ccc(C(CNC(=O)c2cc(F)c(F)c(F)c2F)N2CCOCC2)cc1` (stereo unspecified), the Potency is reported as inconclusive: 29.1 µM [activator, single point]. With `CCCCNC(=O)c1sc(=S)n(-c2ccccc2OC)c1N` the “activity change, negative = inhibition” value was inactive: -12.1%. For `CCC(C)NC(=O)c1ccccc1NC(=O)C(C)N(c1ccccc1)S(C)(=O)=O` (stereo unspecified), the Potency was inconclusive: 0.92 µM [falling, full curve, poor fit]. In the case of `Cc1nn(-c2ccccc2)nc1C(=O)Nc1nnc(C(F)(F)F)s1`, the Potency is reported as inconclusive: 23.1 µM [falling, single point]. With `Cc1sc(=NC(=O)c2ccco2)n(C)c1-c1ccc(F)cc1` the Potency was inconclusive: 1.46 µM [activator, full curve, poor fit]. In the case of `COc1ccccc1NC(=O)CS(=O)(=O)c1cn(CC(=O)N(C(C)C)C(C)C)c2ccccc12`, the Potency is reported as inconclusive: 5.17 µM [activator, full curve, poor fit]. In the case of `CCCCN1C(=O)c2ccc(C(=O)Nc3cccnc3)cc2C1=O`, the Potency is reported as inconclusive: 0.92 µM [activator, full curve]. In the case of `CCOc1ccc(NC2=C(Cl)C(=O)N(Cc3ccccc3)C2=O)cc1`, the Potency is reported as inconclusive: 18.4 µM [activator, single point]. With `C/C(=N\NC(=O)c1c(C)nc2ccccn12)c1ccc(C(C)(C)C)cc1` the Potency was inconclusive: 14.6 µM [activator, partial curve]. In the case of `CC1CN(C(=O)CCC(=O)NCc2cccs2)c2ccccc2O1` (stereo unspecified), the Potency is reported as inconclusive: 23.1 µM [falling, single point]. With `c1ccc(-c2nc(-n3nc4ccccc4n3)nc3ccccc23)cc1` the Potency was inconclusive: 16.4 µM [falling, single point]. In the case of `CS(=O)(=O)N(Cc1ccc(C(=O)NN=C2CCCCCC2)cc1)c1ccccc1`, the “activity change, negative = inhibition” value is reported as inactive: -18.3%. For `CN(C)c1ccc(CNc2ncc(Br)cc2Br)cc1`, the “activity change, negative = inhibition” value was inactive: 5.94%. With `CCOC(=O)c1ccc(NC(=O)c2nc(S(=O)(=O)Cc3ccccc3)ncc2Cl)cc1` the Potency was inconclusive: 29.1 µM [falling, single point]. For `COc1ccc(N=C2SC(CC(=O)Nc3ccc(OC)cc3OC)C(=O)N2C)cc1` (stereo unspecified), the Potency was inconclusive: 18.4 µM [falling, partial curve]. In the case of `CN(C)c1ccc(/C=N/Nc2nncc3ccccc23)cc1`, the Potency is reported as inconclusive: 6.51 µM [activator, partial curve]. In the case of `Cc1nn(CCCC(=O)NCc2ccccc2)c(=O)c2c1sc1ccccc12`, the Potency is reported as inconclusive: 4.61 µM [falling, full curve, poor fit]. In the case of `O=C(NC1CCCCC1)c1ccc(CN2CCOCC2)cc1`, the Potency is reported as inconclusive: 20.6 µM [activator, single point]. For `Cc1cccc(C)c1NC(=O)CN(C)C(=O)c1cc(S(=O)(=O)N(C)C)ccc1N1CCCC1`, the “activity change, negative = inhibition” value was inactive: -20.6%. For `CC(C)c1ccc(NC(=O)c2cc3c(=O)n(C)c4ccccc4c3n2C)cc1`, the Potency was inconclusive: 8.2 µM [falling, partial curve]. For `O=C(Nc1nnc(C2=COCCO2)o1)c1ccc(F)cc1`, the Potency was inconclusive: 0.116 µM [falling, full curve, poor fit]. For `CCOC(=O)c1ccc(NC2=CC(c3ccc(Br)cc3)N(c3ccc(C(=O)OCC)cc3)C2=O)cc1` (stereo unspecified), the Potency was inconclusive: 3.66 µM [falling, single point]. With `COC(=O)c1cc(Cl)c(NC(=O)/C=C/c2ccc(Cl)cc2Cl)cc1OC` the “activity change, negative = inhibition” value was inactive: 9.63%. In the case of `Cc1c(C(=O)NCCSCc2cccc(C(F)(F)F)c2)cnn1-c1ccc(Cl)cc1`, the Potency is reported as inconclusive: 20.6 µM [falling, single point].
